According to PMC2391170:
These are yes or no findings as the source states them, for the method shown. Some binding calls cover weakened binding; strength is not graded here.

T1: AtFIPS5 (Arabidopsis) (UniProt F4KDH9)
T1 sequence: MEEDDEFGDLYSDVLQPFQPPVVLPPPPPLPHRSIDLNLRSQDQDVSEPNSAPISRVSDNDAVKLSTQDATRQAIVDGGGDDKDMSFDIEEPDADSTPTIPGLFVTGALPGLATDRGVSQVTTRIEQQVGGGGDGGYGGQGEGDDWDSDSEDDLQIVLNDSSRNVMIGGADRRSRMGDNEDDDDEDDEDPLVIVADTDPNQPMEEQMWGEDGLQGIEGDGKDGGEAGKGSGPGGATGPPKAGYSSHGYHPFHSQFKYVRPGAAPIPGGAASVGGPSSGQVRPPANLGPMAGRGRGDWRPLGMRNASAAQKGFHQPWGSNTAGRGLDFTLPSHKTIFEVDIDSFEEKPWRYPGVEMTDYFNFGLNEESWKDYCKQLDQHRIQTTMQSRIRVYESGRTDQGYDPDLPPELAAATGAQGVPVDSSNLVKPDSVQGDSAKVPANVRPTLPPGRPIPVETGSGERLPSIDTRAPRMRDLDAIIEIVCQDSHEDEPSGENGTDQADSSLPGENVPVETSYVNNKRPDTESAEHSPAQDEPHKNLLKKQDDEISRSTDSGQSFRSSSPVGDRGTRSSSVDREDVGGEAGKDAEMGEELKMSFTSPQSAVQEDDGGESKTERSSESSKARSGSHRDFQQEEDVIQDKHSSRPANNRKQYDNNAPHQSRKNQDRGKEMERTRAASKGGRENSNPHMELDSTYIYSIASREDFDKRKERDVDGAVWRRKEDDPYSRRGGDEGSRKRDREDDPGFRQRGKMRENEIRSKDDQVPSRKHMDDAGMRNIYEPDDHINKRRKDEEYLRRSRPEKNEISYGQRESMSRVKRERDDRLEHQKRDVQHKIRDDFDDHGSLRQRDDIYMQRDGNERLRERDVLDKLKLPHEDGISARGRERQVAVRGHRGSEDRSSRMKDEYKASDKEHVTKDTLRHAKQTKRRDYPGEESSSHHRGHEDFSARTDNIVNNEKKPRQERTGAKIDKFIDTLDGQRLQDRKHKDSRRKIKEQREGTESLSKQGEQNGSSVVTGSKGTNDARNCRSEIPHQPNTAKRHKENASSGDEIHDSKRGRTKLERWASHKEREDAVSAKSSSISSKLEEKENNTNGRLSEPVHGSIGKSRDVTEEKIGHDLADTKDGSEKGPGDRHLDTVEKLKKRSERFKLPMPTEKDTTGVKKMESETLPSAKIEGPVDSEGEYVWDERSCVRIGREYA


What follows are binders tested against T1, AtFIPS5 (Arabidopsis) (assay: two-hybrid; AD (pGAD-C(1)) and BD (pGBD-C(1)) fusions in yeast PJ69-4; dual transformants tested on media lacking leucine, tryptophan and adenine; positive if all tested colonies (4 to 10) grew; both combinations of clones tested whenever possible).

| Binder | binding |
| --- | --- |
| AtPABN1 (protein, UniProt Q9FJN9 1-220) MEEEEHEVYGGEIPDVGEMDGDMEALNPDLDMAAADDDAVKELDEMKKRLKEMEDEAAALREMQAKVEKEMGAQDPASIAANQAGKEEVDARSVFVGNVDYACTPEEVQQHFQTCGTVHRVTILTDKFGQPKGFAYVEFVEVEAVQEALQLNESELHGRQLKVLQKRTNVPGLKQFRGRRFNPYMGYRFRRPFMSPYMYSPYGYGKAPRFRRPMRYMPYQ | binds |
| AtPAPS1 (protein, UniProt Q9LMT2 1-713) MASVQQNGQRFGVSEPISMGGPTEFDVIKTRELEKHLQDVGLYESKEEAVRREEVLGILDQIVKTWIKTISRAKGLNDQLLHEANAKIFTFGSYRLGVHGPGADIDTLCVGPRHATREGDFFGELQRMLSEMPEVTELHPVPDAHVPLMGFKLNGVSIDLLYAQLPLWVIPEDLDLSQDSILQNADEQTVRSLNGCRVTDQILRLVPNIQNFRTTLRCMRFWAKRRGVYSNVSGFLGGINWALLVARICQLYPNALPNILVSRFFRVFYQWNWPNAIFLCSPDEGSLGLQVWDPRINPKDRLHIMPIITPAYPCMNSSYNVSESTLRIMKGEFQRGNEICEAMESNKADWDTLFEPFAFFEAYKNYLQIDISAANVDDLRKWKGWVESRLRQLTLKIERHFKMLHCHPHPHDFQDTSRPLHCSYFMGLQRKQGVPAAEGEQFDIRRTVEEFKHTVNAYTLWIPGMEISVGHIKRRSLPNFVFPGGVRPSHTSKGTWDSNRRSEHRNSSTSSAPAATTTTTEMSSESKAGSNSPVDGKKRKWGDSETLTDQPRNSKHIAVSVPVENCEGGSPNPSVGSICSSPMKDYCTNGKSEPISKDPPENVVAFSKDPPESLPIEKIATPQAHETEELEESFDFGNQVIEQISHKVAVLSATATIPPFEATSNGSPFPYEAVEELEVLPTRQPDAAHRPSVQQRKPIIKLSFTSLGKTNGK | binds |

The remaining lines, values ahead:

| binding | Binder |
| --- | --- |
| binds | AtPAPS3 (protein, UniProt Q56XM9 1-507) MKKGGGRNKGFPQDDESSISLRQLMVNEGLIPSLEDEVKRRGVINQLRKIVVRWVKNVAWQHRLPQNQIDATNATILPYGSYGLGVYGSESDIDALCIGPFFASIAEDFFISLRDMLKSRREVSELHCVKDAKVPLIRFKFDGILVDLPYAQLRVLSIPNNVDVLNPFFLRDIDETSWKILSGVRANKCILQLVPSLELFQSLLRCVKLWAKRRGVYGNLNGFLGGVHMAILAAFVCGYQPNATLSSLLANFFYTFAHWQWPTPVVLLEDTYPSTGAPPGLMPIQLPCGSHQYCNSTITRSTFYKIVAEFLLGHNLTKDYLKLNFSWKDLFELYPYANTYTWFTKIHLSAANQEDLSDWVGWVKSRFRCLLIKIEEVYGICDPNPTEYVETYTKQPNIVFYWGLQLRTINVSDIESVKIDFLKNVNSGSFRGTVGRIQLTLVKASQLPKNGECGSNNRSKKVTKTCWRIREDKQCNNVPVYSKHLPGYVVGYQKMVNREADGMEVKC |
| binds | AtPAPS2 (protein, UniProt O82312 1-800) MVSTQQRTDDDSSQPVKASLKSYGITEPLSIAGPSAADVKRNLELEKFLVDEGLYESKEETMRREEVVVRIDQIVKHWVKQLTRQRGYTDQMVEDANAVIFTFGSYRLGVHGPMADIDTLCVGPSYVNREEDFFIFFRDILAEMEEVTELQPVTDAHVPVMKFKFQGISIDLLYASISLLVIPQDLDISNSSVLCDVDEQTVRSLNGCRVADQILKLVPNSEHFRTTLRCLKYWAKKRGVYSNVTGFLGGVNWALLVARLCQFYPNAIPSMLVSRFFRVYTQWRWPNPVMLCAIEEDDLSFPVWDPRKNHRDRYHLMPIITPAYPCMNSSYNVSQSTLRVMTEQFQFGNTICQEIELNKQHWSSLFQQYMFFEAYKNYLQVDVLAADAEDLLAWKGWVESRFRQLTLKIERDTNGMLMCHPQPNEYVDTSKQFRHCAFFMGLQRADGFGGQECQQFDIRGTVDEFRQEVNMYMFWRPGMDVHVSHVRRRQLPSFVFPNGYKRSRQSRHQSQQCREPGDEGVGSLSDSVERYAKRKNDDEIMNSRPEKREKRASCSLHTLDAASPDSSGITTSGTPQIGIVPGPRAECLVTGDLVCNVTSLPNVEVEAEKFISKITELRKFSQYEHTSGSEQILEVDSRALVQSYHDLAEPVAKHVRPDLSALLACEGGQNKEIGHDMGSESINDTDTQHLPRRLNVNEDVDEVEREAKLGEIAGGVLWNGHCGRNLDHEGFVTPANLDSAVENRNLHSDGLFKSGLPEELQSNSLLSGTGKLDDGARSESLQNEMMRHVFLQPIIGLCKS |
